# Assay results from paper PMC6901988.
# The chains behind the UniProt entries cited, without tags or fusion partners.
# UniProt P19525: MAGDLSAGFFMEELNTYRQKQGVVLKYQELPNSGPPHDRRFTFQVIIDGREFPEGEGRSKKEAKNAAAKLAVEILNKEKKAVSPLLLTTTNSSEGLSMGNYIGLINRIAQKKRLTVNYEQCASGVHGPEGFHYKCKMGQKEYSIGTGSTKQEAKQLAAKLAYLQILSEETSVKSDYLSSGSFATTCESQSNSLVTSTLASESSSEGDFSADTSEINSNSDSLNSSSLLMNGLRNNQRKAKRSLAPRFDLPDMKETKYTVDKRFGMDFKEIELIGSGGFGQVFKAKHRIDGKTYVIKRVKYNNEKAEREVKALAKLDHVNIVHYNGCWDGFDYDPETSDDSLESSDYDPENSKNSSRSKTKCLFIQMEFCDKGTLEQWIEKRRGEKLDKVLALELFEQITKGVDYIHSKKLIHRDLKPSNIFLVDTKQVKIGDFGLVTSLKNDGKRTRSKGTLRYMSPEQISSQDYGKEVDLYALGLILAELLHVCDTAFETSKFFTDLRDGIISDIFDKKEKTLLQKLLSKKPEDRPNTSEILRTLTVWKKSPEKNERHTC
# UniProt Q9ULZ3: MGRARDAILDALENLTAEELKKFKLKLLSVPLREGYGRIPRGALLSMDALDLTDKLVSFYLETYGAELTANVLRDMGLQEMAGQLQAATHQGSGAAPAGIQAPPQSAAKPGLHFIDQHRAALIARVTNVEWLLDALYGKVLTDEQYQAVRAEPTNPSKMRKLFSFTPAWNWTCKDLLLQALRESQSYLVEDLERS
# Results are given in words; binding and its absence hold for the method and conditions named. Binding seen in cells or lysates may run through a third protein. Some results given as binding are weak or reduced against the parent protein; the word gives no strength.
# Target: Flag-tagged PKR (interferon-inducible double-stranded RNA-dependent protein kinase) (human) (UniProt P19525)
# Test: co-IP
substance,measurement,value
"YFP-ASC (apoptosis-associated speck-like protein containing a caspase recruitment domain), stably expressed in HEK293 cells (from UniProt Q9ULZ3 1-195)",binding,binds
